Results taken from patent publication US20230399412A1 (NANJING IASO BIOTECHNOLOGY, published 2023).
Results are given in words; binding and its absence hold for the method and conditions named. Some binding calls cover weakened binding; strength is not graded here. For some assays here: Tags and fused reporters may be left off the sequences shown.

Assays:
[1] = molecular target: T1, CD70 Protein, Human, Recombinant (human FC Tag) (Sino Biological, 10780-H01H) (human) (UniProt P32970); test: phage ELISA
T1 sequence (looked up): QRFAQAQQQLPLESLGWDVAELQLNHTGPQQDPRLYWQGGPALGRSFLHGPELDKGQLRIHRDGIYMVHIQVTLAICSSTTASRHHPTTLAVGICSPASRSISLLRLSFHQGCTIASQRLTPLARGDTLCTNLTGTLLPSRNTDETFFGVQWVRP

[2] = molecular target: T2, Biotinylated Human CD27 Ligand, HIS, Avitag (ACRO biosystem, CDL-H82Q9) (human) (UniProt P32970); test: phage ELISA
T2 sequence (biotinylated (Avitag), looked up): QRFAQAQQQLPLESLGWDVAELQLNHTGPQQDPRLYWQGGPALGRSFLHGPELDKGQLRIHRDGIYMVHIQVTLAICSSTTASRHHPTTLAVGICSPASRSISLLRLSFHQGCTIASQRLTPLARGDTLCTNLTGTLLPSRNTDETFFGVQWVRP

[3] = molecular target: T3, Human CD70/CD27 Ligand Protein-his-Trimer-Biotin (Kactus, CD7-HM271) (human) (UniProt P32970); test: phage ELISA
T3 sequence (biotinylated, looked up): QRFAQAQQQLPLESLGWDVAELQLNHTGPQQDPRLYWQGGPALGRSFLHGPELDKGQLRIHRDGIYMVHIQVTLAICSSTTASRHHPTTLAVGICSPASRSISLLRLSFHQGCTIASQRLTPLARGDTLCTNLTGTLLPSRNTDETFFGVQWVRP

[4] = molecular target: T4, Human CD70/CD27 Ligand Protein (human FC Tag)-Biotin (Kactus, CD7-HM270) (human) (UniProt P32970); test: phage ELISA
T4 sequence (biotinylated, looked up): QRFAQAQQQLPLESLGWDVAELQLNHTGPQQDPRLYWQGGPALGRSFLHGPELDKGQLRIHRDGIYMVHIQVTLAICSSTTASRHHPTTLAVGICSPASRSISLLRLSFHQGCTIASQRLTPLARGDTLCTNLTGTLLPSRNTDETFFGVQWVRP

[5] = molecular target: T5, Biotinylated Human CD27 Ligand, Avitag, human Fc Tag (ACRO biosystem, TN7-H82F4) (human) (UniProt P32970); test: phage ELISA
T5 sequence (biotinylated (Avitag), looked up): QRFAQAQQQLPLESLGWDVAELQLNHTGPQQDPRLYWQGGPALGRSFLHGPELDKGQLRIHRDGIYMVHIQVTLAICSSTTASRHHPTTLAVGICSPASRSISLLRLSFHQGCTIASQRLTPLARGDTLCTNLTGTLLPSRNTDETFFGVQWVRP

[6] = molecular target: T6, Human CD70/CD27 Ligand Protein-his-Trimer (Kactus, CD7-HM271-1) (human) (UniProt P32970); test: phage ELISA
T6 sequence (looked up): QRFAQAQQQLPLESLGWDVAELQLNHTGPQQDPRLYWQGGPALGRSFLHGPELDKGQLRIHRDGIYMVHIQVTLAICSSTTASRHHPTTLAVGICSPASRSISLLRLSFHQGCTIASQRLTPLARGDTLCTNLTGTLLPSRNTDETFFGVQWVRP

[7] = molecular target: T7, CD70 on the cell surface of CD70-positive cell lines (UniProt P32970); test: phage FACS on CD70-positive cell lines (Raji, U266)
T7 sequence (looked up): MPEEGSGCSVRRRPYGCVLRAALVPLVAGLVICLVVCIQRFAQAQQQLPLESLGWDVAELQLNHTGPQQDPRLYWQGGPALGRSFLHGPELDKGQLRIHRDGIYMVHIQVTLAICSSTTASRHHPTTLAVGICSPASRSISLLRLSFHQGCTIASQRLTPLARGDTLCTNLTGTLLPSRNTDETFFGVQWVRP

B1: phage monoclonal antibody clone #9 (VHH)
VHH: EVQLLESGGGLVQPGGSLRLSCAASGFTFNIDAMGWVRQAPGKGLEWVSSISSSGGTTYYADSVKGRFTISRDNSKNTLYLQMNSLRAEDTAVYYCARSRYSVPDGRGSYDVWGQGTLVTVSS
notes: single-domain antibody (heavy chain variable region alone); also called VHH 09; 09 antibody
- binding [1]: binds

B2: phage monoclonal antibody clone #13 (VHH)
VHH: EVQLLESGGGLVQPGGSLRLSCAASGFTFSSEAMGWVRQAPGKGLEWVSSINGSGRNTYYADSVKGRFTISRDNSKNTLYLQMNSLRAEDTAVYYCARKHGEYYDSGYDVWGQGTLVTVSS
notes: single-domain antibody (heavy chain variable region alone); also called VHH13; VHH 13
- binding [2]: binds
- binding [3]: binds
- binding [4]: binds
- binding [5]: binds
- binding [6]: binds
- binding [1]: binds
- binding [7]: binds

B3: phage monoclonal antibody clone #20 (VHH)
VHH: EVQLLESGGGLVQPGGSLRLSCAASGFTFSSYAMGWVRQAPGKGLEWVSSISGYGEETYYADSVKGRFTISRDNSKNTLYLQMNSLRAEDTAVYYCARFYYRYWKEFDYWGQGTLVTVSS
notes: single-domain antibody (heavy chain variable region alone); also called VHH20; VHH 20
- binding [1]: binds

B4: phage monoclonal antibody clone #21 (VHH)
VHH: EVQLLESGGGLVQPGGSLRLSCAASGFTFSNYAMGWVRQAPGKGLEWVSSITGLGGNMYYADSVKGRFTISRDNSKNTLYLQMNSLRAEDTAVYYCARMYYSQGVNNYSYPSTDIWGQGTLVTVSS
notes: single-domain antibody (heavy chain variable region alone); also called VHH21; VHH 21
- binding [1]: binds

B5: phage monoclonal antibody clone #6 (scFv)
scFv: QAVLTQPPSASATPGQRVSISCSGSSSNIGRNTVNWYQHLPGTAPKLLIYSNDHRPSGVPDRFSGSQSGTSASLAISGLQSEDEADYYCASWDDSLTGWVFGGGTKVTVLGSRGGGGSGGGGSGGGGSLEMAQVQLVQSGAEVKKAGSSLKVSCKANGGSFTNYLINWVRQAPGQGLEWMGGIIPVYGTPIYSQKFQGRVTFTADEPTRTAYMELSSLTFEDTAVYYCVREDEGYGDLYLAYWGQGTLVTVSS
notes: also called scFv 06; Scfv06
- binding [1]: binds
